The list shows a part of the results. Further columns of the screen follow, without active or inactive calls. The list favours compounds with an active or inconclusive main result. Words in brackets tell the shape of the fitted curve; partial curves, single points and poor fits give uncertain potencies.

These results are taken from PubChem BioAssay (NCATS).

This test in a line: S16 Schwann cell PMP22 intronic element beta-lactamase assay (AID 624044). Particulars: S16 rat Schwann cells, PMP22 element beta-lactamase FRET, 24 h; measured here: 530 nm viability channel. Put shortly:
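Beta-lactamase reporter under a PMP22 intronic regulatory element in stable S16 rat Schwann cells; 24 h compound exposure. 460 nm blue signal normalized between DMSO (0%) and potassium clavulanate, with 535 nm FRET tracking viability; curves classed by r2 and response.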
Consider `Cc1c(C)c2c(c(C)c1OC(=O)CCC(=O)O)CC[C@@](C)(CCC[C@H](C)CCC[C@H](C)CCCC(C)C)O2`, for which the AC50 (as a rule, the midpoint of the concentration-response curve, whichever way the signal moves) is 25.1 µM [rising, single point]. In the case of `O=C(O)c1ccccc1-c1c2ccc(=O)cc-2oc2cc(O)ccc12`, the AC50 is 15.8 µM [rising, partial curve]. For the compound `C[N+]1(C)CCC(=C(c2ccccc2)c2ccccc2)CC1`, the AC50 is 0.0126 µM [falling, full curve]. The same measure for `CS(=O)(=O)c1ccc([C@H](O)[C@H](CF)NC(=O)C(Cl)Cl)cc1`: 0.158 µM [falling, full curve]. The same measure for `CCCCCCC(O)C/C=C/CCCCCCCC(=O)O` (stereo not given): 1.41 µM [falling, full curve, poor fit].
